Results from PubChem BioAssay AID504444 (National Center for Advancing Translational Sciences (NCATS), 2011).
Hit rate of the full screen: of about 360,000 compounds, about 7,500 (2.1%) were called active. Inconclusive results, whose numbers are uncertain, are shown with a selection of clear calls. Calls follow the shape of the dose curve; as a rule, active = well fitted inhibition curve with a large enough effect; inconclusive = small, poorly fitted or top-dose-only effect, or effect the other way; inactive = flat fitted curve, though single readings scatter. Potencies beside an inconclusive call are fits to weak or partial responses and may not hold up.

assay: Nrf2 qHTS screen for inhibitors; details: A549 ARE-Fluc reporter, luciferase luminescence, 18-24 h; activity change, negative = inhibition: at 46 µM (top of the series); also: nearly all actives have a fitted effect of over 60% in size
In short: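 Two sequential reads on A549 ARE_Fluc cells exposed to compound for 18-24 h: a CellTiter-Fluor fluorescence read for viability, then a luciferase luminescence read for Nrf2/ARE activity.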
% is scaled to controls: 0 for no effect and ±100 for the full control effect; potency is read from the fitted curve at half-maximal effect.

| SMILES | Potency | activity change, negative = inhibition |
| --- | --- | --- |
| Cc1ccc(S(=O)(=O)Oc2ccccc2/C=N/NC(=O)c2c(Cl)cnn2C)cc1 | inconclusive: 23.1 µM [falling, partial curve, poor fit] | – |
| Fc1cccc(/C=N/NC(=S)Nc2ccccc2Cl)c1 | inconclusive: 10.3 µM [activator, partial curve] | – |
| O=C(NCCc1c[nH]c2ccccc12)c1cnccn1 | inconclusive: 16.4 µM [activator, partial curve] | – |
| Cn1c(N/N=C/c2cccs2)cc(=O)n(C)c1=O | – | inactive: 4.88% |
| CCOc1cc2[nH]c(=O)n(CCCCC(=O)NCc3ccco3)c(=O)c2cc1OCC | inconclusive: 16.4 µM [falling, partial curve, poor fit] | – |
| Cc1ccc(Cl)cc1NC(=O)c1cc(S(=O)(=O)N2CCOCC2)cn1C | inconclusive: 14.6 µM [falling, partial curve, poor fit] | – |
| c1ccc2c(c1)nc(Nc1ccc(N3CCCCC3)cc1)c1nncn12 | inconclusive: 1.64 µM [falling, full curve, poor fit] | – |
| Cn1nnc2cc(C(=O)Nc3ccc4ccccc4c3)ccc21 | inconclusive: 1.46 µM [activator, full curve] | – |
| Cc1cc(NC(=O)c2cc(-c3ccc(F)cc3)on2)nn1Cc1ccc(Cl)cc1 | active: 6.51 µM | – |
| S=C(NCc1ccccc1)NNc1nc2ccccc2[nH]1 | inconclusive: 29.1 µM [activator, single point] | – |
| Cc1ccc2c(CC(=O)Nc3ccc(S(=O)(=O)N4CCCC(C)C4)cc3)coc2c1 (centres undefined) | active: 20.6 µM | – |
| Cc1nc(NC(=O)c2ccc(Br)o2)ccc1Br | inconclusive: 8.2 µM [activator, partial curve] | – |
| CCN1C(=O)/C(=C/N(C)c2ccccc2)OC1=S | inconclusive: 32.6 µM [activator, partial curve, poor fit] | – |
| Cc1ccc(S(=O)(=O)NCC(c2ccco2)N2CCc3ccccc3C2)cc1 (centres undefined) | inconclusive: 1.46 µM [activator, full curve, poor fit] | – |
| COc1ccc(CCC(=O)N/N=C/c2ccc3c(c2)OCO3)cc1 | – | inactive: 2.9% |
| COc1cc(C(=O)NCCNc2nc3cc(C)ccc3cc2C#N)cc(OC)c1OC | inconclusive: 25.9 µM [falling, partial curve, poor fit] | – |
| O=c1cc(-c2ccc(Cl)cc2)[nH][nH]1 | inconclusive: 0.116 µM [falling, full curve, poor fit] | – |
| COc1ccc2c(Cl)c(C(=O)N/N=C/c3ccc4c(c3)OCO4)sc2c1 | inconclusive: 14.6 µM [falling, partial curve, poor fit] | – |
| Cc1cc(/C=C(\C#N)C(=O)Nc2ccc(F)cc2)c(C)n1-c1ccc(N2CCOCC2)c([N+](=O)[O-])c1 | inconclusive: 3.66 µM [falling, full curve, poor fit] | – |
| COc1ccc2nc(NC(=O)c3ccco3)sc2c1 | inconclusive: 0.82 µM [activator, full curve] | – |
| Cc1cc(NC(=O)CSc2nc(C(C)C)nc3c2c(=O)n(C)c(=O)n3C)no1 | – | inactive: -18.1% |
| CCN(CC)S(=O)(=O)c1ccc(NC(=O)CSc2cccc[n+]2[O-])cc1 | – | inactive: 3.69% |
| COc1ccc(Cl)cc1NC(=O)CSc1nc(=O)[nH]c2c1CCC2 | inconclusive: 23.1 µM [falling, partial curve, poor fit] | – |

Reprinted from the listing, four compounds:

| SMILES | Potency | activity change, negative = inhibition |
| --- | --- | --- |
| Cc1ccc(S(=O)(=O)NCC(c2ccco2)N2CCc3ccccc3C2)cc1 (centres undefined) | inconclusive: 1.46 µM [activator, full curve, poor fit] | – |
| COc1ccc(CCC(=O)N/N=C/c2ccc3c(c2)OCO3)cc1 | – | inactive: 2.9% |
| COc1cc(C(=O)NCCNc2nc3cc(C)ccc3cc2C#N)cc(OC)c1OC | inconclusive: 25.9 µM [falling, partial curve, poor fit] | – |
| O=c1cc(-c2ccc(Cl)cc2)[nH][nH]1 | inconclusive: 0.116 µM [falling, full curve, poor fit] | – |

More structures:

| SMILES | Potency | activity change, negative = inhibition |
| --- | --- | --- |
| O=C(CSc1ncccn1)c1ccccc1Br | inconclusive: 13 µM [activator, partial curve, poor fit] | – |
| O=C(NNC(=O)c1ccc(F)cc1F)c1ccc2c(c1)OCO2 | inconclusive: 7.31 µM [activator, partial curve] | – |
| O=C(O)c1cc(S(=O)(=O)O)ccc1O | – | inactive: -14.3% |
| C=CCNC(=O)COC(=O)COc1ccc(Cl)cc1 | – | inactive: 4.94% |
| COCCNC(=O)CSc1nc(-c2ccc(C)cc2)[nH]c1-c1ccc(OC)cc1 | – | inactive: 6.56% |
| Cc1cc2c(s1)c1cnn(Cc3cccc(Cl)c3)c(=O)c1n2C | inconclusive: 2.59 µM [falling, partial curve, poor fit] | – |
| Cc1ccc(O)c(CC(C)C)n1 | – | inactive: 21.5% |
| Cc1ccccc1NC(=S)NC(=O)CCc1ccccc1 | – | inactive: 2.05% |
| CC(C)C(C(=O)O)N1C(=O)/C(=C/c2cccn2C)SC1=S (centres undefined) | inconclusive: 0.146 µM [activator, full curve, poor fit] | – |
| COc1cccc(NC(=O)CSc2ncnc3c2cnn3Cc2ccccc2)c1 | inconclusive: 9.2 µM [falling, partial curve] | – |
| Cc1ccccc1OCC(=O)N1N=C(c2cccnc2)CC1(O)C(F)(F)F (centres undefined) | – | inactive: -17.3% |
| COC(=O)[C@]1(Cc2ccccc2)N[C@H](CN(C)S(=O)(=O)c2ccc(-c3ccccc3)cc2)[C@@H]2C(=O)N(C)C(=O)[C@@H]21 | inconclusive: 29.1 µM [falling, partial curve, poor fit] | – |
| COc1cccc(Sc2nc(-c3ccccc3)ncc2S(C)(=O)=O)c1 | inconclusive: 32.6 µM [activator, single point] | – |
| O=C(/C=C\Nc1ccc(Br)cc1)c1cccnc1 | inconclusive: 1.46 µM [activator, full curve] | – |
| CCC(C)(C)NC(=O)C(c1ccc(C)o1)N(Cc1cccs1)C(=O)Cn1nnc2ccccc21 (centres undefined) | – | inactive: -10.2% |
| CN(C)C(=S)Nc1nc2ccccc2s1 | inconclusive: 29.1 µM [falling, single point] | – |
| COc1cc(Cl)ccc1OCc1cc(C(=O)N2C[C@H]3CC[C@H]2C3)no1 | inconclusive: 10.3 µM [activator, partial curve] | – |
| C=CCNc1nc2c(c(=O)n(C)c(=O)n2C)n1CCCCCC | active: 4.11 µM | – |
| O=C(Nc1ccc2c(c1)OCCO2)c1ccc(Cl)cc1Cl | inconclusive: 0.517 µM [activator, full curve] | – |
| Cc1ccc(C(=O)N2N=C(CC(C)C)CC2(O)C(F)(F)F)o1 (centres undefined) | – | inactive: -3.82% |
| CCOC(=O)c1ccc(NC(=O)c2nc[nH]c2C(=O)N[C@@H](CCCCNC(=O)OC(C)(C)C)C(=O)OC(C)(C)C)cc1 | active: 23.1 µM | – |
| CCc1cccc2c(C(=O)CN3C(=O)NC4(CCc5ccccc54)C3=O)c[nH]c12 (centres undefined) | inconclusive: 10.3 µM [falling, partial curve, poor fit] | – |
| CCCOc1ccc(NC(=O)CNC(=O)c2cc(OC)cc(OC)c2)cc1OCCC | inconclusive: 18.4 µM [falling, single point] | – |

| SMILES | Potency | activity change, negative = inhibition |
| --- | --- | --- |
| Clc1ccccc1-c1nnc(SCc2nc(-c3ccccc3)no2)n1-c1ccccc1 | active: 14.6 µM | – |
| N#Cc1ccc(CSc2nnc(COc3ccccc3)n2-c2ccccc2)cc1 | inconclusive: 18.4 µM [falling, single point] | – |
| CC[n+]1c(C=C2C=C(C)OC(C)=C2)sc2ccccc21 | active: 0.731 µM | – |
| COc1ccccc1C1=Nn2c(nnc2-c2cccc(OC)c2OC)SC1 | – | inactive: -6.7% |
| Cc1cccc(N(CC(=O)N(C)Cc2ccccc2)S(=O)(=O)c2ccccc2)c1C | – | inactive: 3.08% |
| O=C(Nc1nc2ccccc2s1)c1ccc(Cl)s1 | inconclusive: 18.4 µM [activator, partial curve] | – |
| COC(=O)[C@@]12CCCCN1[C@H](c1ccc(-c3ccc(F)cc3)c(OC)c1)[C@H]1C(=O)N(C)C(=O)[C@H]12 | inconclusive: 23.1 µM [falling, single point] | – |
| N#Cc1c(NC(=O)CSc2nc3c(c(C(F)(F)F)n2)CCc2ccccc2-3)sc2c1CCCC2 | – | inactive: 4.17% |
| Cc1ccc(CN(Cc2ccccc2)C(=S)Nc2ccccc2C)o1 | inconclusive: 0.92 µM [falling, full curve, poor fit] | – |
| COc1ccc2nc(NC(=O)C3COc4ccccc4O3)sc2c1 (centres undefined) | inconclusive: 2.59 µM [activator, single point] | – |
| CNc1ccccc1C(=O)OC(C)C(=O)Nc1ccc(S(=O)(=O)N2CCCC2)cc1 (centres undefined) | inconclusive: 20.6 µM [falling, partial curve, poor fit] | – |
| O=c1c2c3c(sc2n(CCN2CCOCC2)c(=O)n1Cc1ccco1)CCCCC3 | inconclusive: 29.1 µM [falling, partial curve, poor fit] | – |
| COc1ccccc1CNC(=O)c1ccc(CS(=O)c2ccccc2Cl)o1 (centres undefined) | – | inactive: -25.7% |
| CCOc1ccccc1N(CC(=O)NC1CCCC1)S(=O)(=O)c1ccc(C)cc1 | active: 14.6 µM | – |
| CCN1C(=O)[C@@H]2Cc3c([nH]c4ccccc34)C(c3ccc(OC)cc3)N2C1=S (some centres undefined) | inconclusive: 5.8 µM [activator, full curve] | – |
| Cc1cc(C)c2c(=O)n(CC(=O)Nc3cccc(Cl)c3C)sc2n1 | – | inactive: -3.06% |
| O=C(CSc1ncn(-c2ccccc2)n1)c1cccs1 | inconclusive: 18.4 µM [activator, partial curve, poor fit] | – |
| O=C(c1cccc(S(=O)(=O)N2CCc3ccccc3C2)c1)N1CCN(c2ccc(O)cc2)CC1 | inconclusive: 29.1 µM [falling, single point] | – |
| Cc1cc(C)nc(Nc2nc3ccccc3[nH]2)n1 | inconclusive: 4.11 µM [activator, full curve] | – |
| CC(C)Cn1c(C(C)C)nc([N+](=O)[O-])c1S(=O)(=O)c1ccc(F)cc1 | active: 9.2 µM | – |
| COc1ccc(C2C=C(c3ccccc3)Nc3nc(NC(=O)/C=C/c4ccccc4OC)nn32)cc1 (centres undefined) | inconclusive: 23.1 µM [falling, single point] | – |
| Cc1cccc(OCC(=O)N(Cc2ccc(N(C)C)cc2)Cc2ccco2)c1C | inconclusive: 18.4 µM [falling, single point] | – |
| Fc1ccc(CCNc2ncnc3[nH]ncc23)cc1 | inconclusive: 29.1 µM [falling, single point] | – |
